Test results: paper PMC7819943, “Rice protein-binding microarrays: a tool to detect cis-acting elements near promoter regions in rice”
Some of the results follow.

Sequences of proteins named here, by UniProt entry; tags and fusion partners are left off.
UniProt Q0JBA9, entry or part of it: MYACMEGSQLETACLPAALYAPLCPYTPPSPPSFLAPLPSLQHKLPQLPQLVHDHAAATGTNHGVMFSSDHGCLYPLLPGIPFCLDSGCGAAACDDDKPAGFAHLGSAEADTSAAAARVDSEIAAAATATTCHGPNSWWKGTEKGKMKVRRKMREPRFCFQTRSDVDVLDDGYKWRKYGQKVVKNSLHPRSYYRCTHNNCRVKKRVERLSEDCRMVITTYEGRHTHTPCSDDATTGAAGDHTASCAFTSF

target: OsWRKY34 (Oryza sativa, UniProt Q0JBA9 1-250); experiment: protein-binding microarray (RPBM); PBS, 2% BSA, 51.3 ng/ul salmon testes DNA, 50 uM zinc acetate, 200 nM TF, 25 C, 1 h; high values mean tight binding; conditions: protein: recombinant; tags: N-terminal polyhistidine and DsRed monomer fusion (pET32a); label: CyDye5-dUTP incorporated in the synthesized complementary strand; 3' TTTTT single-stranded linker to array surface; dsDNA, one strand shown
How it was run: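 The binding signal is fluorescence intensity per array feature (arbitrary units). Readings came from an Axon 4000B scanner after a washed, 2% BSA-blocked, double-stranded custom Agilent array had been incubated for 1 h at 25 °C with 200 nM protein and 50 µM zinc acetate. The protein was a Ni–NTA-purified transcription factor fused N-terminally to polyhistidine and DsRed, expressed in E. coli BL21-CodonPlus.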

**Q.** How did the binding signal turn out when “CTTCCGGTGTTGGGCATTGATCGGTGGGTGGGTTGAGGATCGGAGTCACCTAGTGCAG” was run?
**A.** The binding signal was 15900 fluorescence intensity (a.u.).

**Q.** “CCACAACTCTCAAATTTCTATCCTTTTCTTCTTCTTCCATCGGAGTCACCTAGTGCAG” was tested. Which binding signal did it give?
**A.** Its binding signal is 9810 fluorescence intensity (a.u.).

**Q.** Which binding signal does the source give for “AACTTTTTCATCACATCAAAGCTTTCCTATACATACAAACCGGAGTCACCTAGTGCAG” here?
**A.** The binding signal was 8480 fluorescence intensity (a.u.).

**Q.** How did the binding signal turn out when “CCCATTTATAGAGCATCCTAGCTACCCTTTTTCCCTGATACGGAGTCACCTAGTGCAG” was run?
**A.** The binding signal was 9400 fluorescence intensity (a.u.).

**Q.** With “GTTCTTGGATGGTCGTTGTTGGTTTCGGTTGGTGTCGATGCGGAGTCACCTAGTGCAG” as the sequence, how does the binding signal read?
**A.** Its binding signal is 9680 fluorescence intensity (a.u.).

**Q.** How did the binding signal turn out when “GCTTGTTTTTCCTTTTCTTTAAGCATCATTGACGTGATTACGGAGTCACCTAGTGCAG” was run?
**A.** Its binding signal is 13000 fluorescence intensity (a.u.).

**Q.** “GCGTTCCACCGCCGCTGTCTCGCTCTCTCTCCGCCGCCACCGGAGTCACCTAGTGCAG” was tested. Which binding signal did it give?
**A.** Its binding signal is 16300 fluorescence intensity (a.u.).

**Q.** For “AAGTAGATATTGGAGTATTTTTCTTGTATTTTTGCTCACTCGGAGTCACCTAGTGCAG”, which binding signal is on record?
**A.** Its binding signal is 8750 fluorescence intensity (a.u.).

**Q.** Which binding signal does the source give for “TGTCCTGTCGCCTTCGATTTCTCAAGTTGACCAAGCCGCTCGGAGTCACCTAGTGCAG” here?
**A.** The binding signal was 13600 fluorescence intensity (a.u.).

**Q.** With “ACATACTATACACATTTTGGCTGTATATATCCACACCTGACGGAGTCACCTAGTGCAG” as the sequence, how does the binding signal read?
**A.** Its binding signal is 9520 fluorescence intensity (a.u.).

**Q.** Which binding signal does the source give for “TCCTTTGGCAGATGTGTTTTACTTTTTTTTTTCTACTTGTCGGAGTCACCTAGTGCAG” here?
**A.** Its binding signal is 8910 fluorescence intensity (a.u.).

**Q.** With “ATGTTTCAATCCCGCGTGAGCCTTTGTGCATACAGTATTTCGGAGTCACCTAGTGCAG” as the sequence, how does the binding signal read?
**A.** Its binding signal is 11800 fluorescence intensity (a.u.).

**Q.** For “ATCTTAACCCTTCATTCATTTTCCAATCCCGCCCCTCATTCGGAGTCACCTAGTGCAG”, which binding signal is on record?
**A.** The binding signal was 9670 fluorescence intensity (a.u.).

**Q.** How did the binding signal turn out when “AAGTACATCTTTTTCGTCTTCTCCACTCCATCTCCATGACCGGAGTCACCTAGTGCAG” was run?
**A.** The binding signal was 8380 fluorescence intensity (a.u.).

**Q.** For “CACTCTTTATTTTATTATGACTTGATTCGTCATCAAATGTCGGAGTCACCTAGTGCAG”, which binding signal is on record?
**A.** The binding signal was 8680 fluorescence intensity (a.u.).

**Q.** Which binding signal does the source give for “GCTTTGCTTGTGGTTGTGGTTGTGAACTTGTGATGATGAACGGAGTCACCTAGTGCAG” here?
**A.** Its binding signal is 9420 fluorescence intensity (a.u.).

**Q.** “AGGTCACACAACATCGCGGCAATTTTCTATTTACGCCCCTCGGAGTCACCTAGTGCAG” was tested. Which binding signal did it give?
**A.** The binding signal was 9060 fluorescence intensity (a.u.).

**Q.** With “TTGTTTTCGTACTAGCCTGCACAAACCTCTTTTTAAGTTACGGAGTCACCTAGTGCAG” as the sequence, how does the binding signal read?
**A.** The binding signal was 8610 fluorescence intensity (a.u.).

**Q.** How did the binding signal turn out when “CTGCATCTGCTGCTGCTGCTGCCACTGCCACTCTTGTCCACGGAGTCACCTAGTGCAG” was run?
**A.** Its binding signal is 8320 fluorescence intensity (a.u.).

**Q.** For “CTCTGATGTCCTATGCATGTTCCAGTTTATTCAGGGCTTGCGGAGTCACCTAGTGCAG”, which binding signal is on record?
**A.** Its binding signal is 8920 fluorescence intensity (a.u.).

**Q.** How did the binding signal turn out when “CGCCATGCATTTCATCCATTCTTTTCCGCCACAAAAATGCCGGAGTCACCTAGTGCAG” was run?
**A.** The binding signal was 8780 fluorescence intensity (a.u.).

**Q.** How did the binding signal turn out when “CCACCAACTAGCTCTCTCTCTCTCTCTCTCTCTCGCGCCGCGGAGTCACCTAGTGCAG” was run?
**A.** The binding signal was 8070 fluorescence intensity (a.u.).

**Q.** For “TTTGACACCGTTGACTTTTTAGTACGTATTTGATCATTCGCGGAGTCACCTAGTGCAG”, which binding signal is on record?
**A.** Its binding signal is 33800 fluorescence intensity (a.u.).

**Q.** With “GTGTTTTGTTCTGGTCACAAGTTAGTCATGCCAAACTTTCCGGAGTCACCTAGTGCAG” as the sequence, how does the binding signal read?
**A.** The binding signal was 8940 fluorescence intensity (a.u.).

**Q.** For “ATGTCCTTTTCGCCGGCCCATTTCAGCTGCTCTCACTCTCCGGAGTCACCTAGTGCAG”, which binding signal is on record?
**A.** The binding signal was 12100 fluorescence intensity (a.u.).

**Q.** “GGAAGTGAGTTATACTATTATCCTGCTCTACTATGAAAACCGGAGTCACCTAGTGCAG” was tested. Which binding signal did it give?
**A.** Its binding signal is 8600 fluorescence intensity (a.u.).

**Q.** “CCCTATTAATGCAACAGCTTCCTGTTTCAGTCTGTACTCTCGGAGTCACCTAGTGCAG” was tested. Which binding signal did it give?
**A.** The binding signal was 8130 fluorescence intensity (a.u.).

**Q.** With “CACATGTCATCACCTCTTTTGTTCATAGCTACAGTCCATGCGGAGTCACCTAGTGCAG” as the sequence, how does the binding signal read?
**A.** The binding signal was 11400 fluorescence intensity (a.u.).

**Q.** For “CAGTAACAATCACTCATTCTCAGTATCTGCTACTCCTCTACGGAGTCACCTAGTGCAG”, which binding signal is on record?
**A.** Its binding signal is 8710 fluorescence intensity (a.u.).

**Q.** With “CCCAAAACTTGCATCACACTCACTAAGTTAGATTGTTCCTCGGAGTCACCTAGTGCAG” as the sequence, how does the binding signal read?
**A.** Its binding signal is 8210 fluorescence intensity (a.u.).

**Q.** For “ATCTCGACCAAACCGCACATACATCTCGTCCCTGCTGGGGCGGAGTCACCTAGTGCAG”, which binding signal is on record?
**A.** Its binding signal is 10400 fluorescence intensity (a.u.).

**Q.** Which binding signal does the source give for “TTGTAGAATTCATCCTTTGTCAATGTTATGGAATGGATTACGGAGTCACCTAGTGCAG” here?
**A.** Its binding signal is 8500 fluorescence intensity (a.u.).

**Q.** Which binding signal does the source give for “ACTTTGTAGCCCAATAACCACTATTTGATTCAACAGGTTTCGGAGTCACCTAGTGCAG” here?
**A.** The binding signal was 9900 fluorescence intensity (a.u.).

**Q.** With “CTGTACTCTGCATGCTTTGGTTTGCTAATATTTAGCCAAACGGAGTCACCTAGTGCAG” as the sequence, how does the binding signal read?
**A.** Its binding signal is 8880 fluorescence intensity (a.u.).

**Q.** For “TCCACTGCCTAGACACGCCACGACTTGGACCATCAGCTAGCGGAGTCACCTAGTGCAG”, which binding signal is on record?
**A.** Its binding signal is 10800 fluorescence intensity (a.u.).

**Q.** How did the binding signal turn out when “CAGGGGCTCCAATACTGACGCGTCGCCGGCGTACGTCCTCCGGAGTCACCTAGTGCAG” was run?
**A.** Its binding signal is 9640 fluorescence intensity (a.u.).

**Q.** How did the binding signal turn out when “TCTGTTTGCGTCTTTGCCTTTTGGGACCCTTGCCTTTTTACGGAGTCACCTAGTGCAG” was run?
**A.** The binding signal was 15100 fluorescence intensity (a.u.).

**Q.** How did the binding signal turn out when “GTACGGAGCAAATTCTCTCCTTAACTAATTATATGTCAATCGGAGTCACCTAGTGCAG” was run?
**A.** Its binding signal is 8090 fluorescence intensity (a.u.).

**Q.** For “TCTTTTTGTTTGCTCCAGCTTCTCCATGGTTTTTTTTGTTCGGAGTCACCTAGTGCAG”, which binding signal is on record?
**A.** Its binding signal is 9230 fluorescence intensity (a.u.).

**Q.** For “AGTCTTTTGTTAATGCATATTGTTGAATTCTTGGGGTTGACGGAGTCACCTAGTGCAG”, which binding signal is on record?
**A.** Its binding signal is 13700 fluorescence intensity (a.u.).

**Q.** How did the binding signal turn out when “CCTTTCCGGTCATATCAGCGTCCTTCGCCCGACCAATCACCGGAGTCACCTAGTGCAG” was run?
**A.** The binding signal was 8600 fluorescence intensity (a.u.).

**Q.** For “TTTAGTTTCTCTGTTGGACCGTACAATCCGGTGTTCTTCCCGGAGTCACCTAGTGCAG”, which binding signal is on record?
**A.** The binding signal was 9140 fluorescence intensity (a.u.).
